# Whole data set: some 33,000 sequences, median “E-score (-0.5 to 0.5)” near -0.015, cut for the highest 2% near 0.3. Some of the results follow.
# Biological target: T1, Abf1 (UniProt P14164)
# T1 sequence: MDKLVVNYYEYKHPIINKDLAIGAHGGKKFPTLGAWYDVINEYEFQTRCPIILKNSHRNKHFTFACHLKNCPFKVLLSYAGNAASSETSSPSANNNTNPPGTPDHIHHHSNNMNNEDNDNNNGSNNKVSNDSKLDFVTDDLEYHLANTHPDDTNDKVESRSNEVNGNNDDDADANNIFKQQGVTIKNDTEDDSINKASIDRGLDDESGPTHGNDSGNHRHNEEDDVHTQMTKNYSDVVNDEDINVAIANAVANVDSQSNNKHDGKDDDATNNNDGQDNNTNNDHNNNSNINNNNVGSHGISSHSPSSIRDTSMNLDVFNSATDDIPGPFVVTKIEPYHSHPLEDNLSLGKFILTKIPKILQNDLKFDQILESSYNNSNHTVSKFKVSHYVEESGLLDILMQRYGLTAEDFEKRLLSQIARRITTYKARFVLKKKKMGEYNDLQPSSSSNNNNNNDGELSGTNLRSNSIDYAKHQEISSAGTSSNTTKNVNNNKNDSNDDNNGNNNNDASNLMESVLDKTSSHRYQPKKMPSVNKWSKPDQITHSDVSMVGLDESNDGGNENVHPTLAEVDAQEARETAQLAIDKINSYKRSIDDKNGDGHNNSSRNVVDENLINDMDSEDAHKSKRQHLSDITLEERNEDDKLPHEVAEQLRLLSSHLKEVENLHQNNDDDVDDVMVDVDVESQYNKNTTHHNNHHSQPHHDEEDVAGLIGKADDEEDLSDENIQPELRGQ
# Assay: PBM E-score (8-mer binding enrichment) (E-score (-0.5 to 0.5)); higher = stronger / more preferred TF binding
# Conditions: protein concentration: 200 nM; construct: GST-full length
# How it was run: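 Yeast transcription factors carrying a GST tag, as full-length proteins or DNA-binding domains, were produced by PURExpress in vitro transcription/translation. About 100-200 nM protein was applied to universal all-10-mer Agilent arrays, double-stranded by primer extension on fresh or once-stripped slides. Bound protein was detected with fluorescent anti-GST, and scans were normalised with masliner. The Universal PBM Analysis Suite gave each ungapped eight-base word, pooled with its reverse complement, an E-score, a modified Wilcoxon-Mann-Whitney statistic.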
row,Sequence,PBM E-score
1,AGATACCG,0.0833
2,ACCTTAGG,-0.159
3,GGCGTTAC,-0.0613
4,AGCGGAGG,-0.298
5,CTTGGCTC,-0.216
6,AAAGCTCT,-0.186
7,AACCTATC,-0.0842
8,GAATCACA,0.0513
9,CCCCCTTA,-0.439
10,AGCTTGAC,-0.245
11,CCCTACTC,-0.144
12,AATCTACA,0.0424
13,AGTGACAC,0.382
14,CGCTTAAC,0.0568
15,CAGACGAG,0.151
16,ATTCGCGC,0.0983
17,CCGTCGTC,0.161
18,GGGCCACA,-0.138
19,CCGCGCAG,-0.0355
20,CCGTATCG,0.256
21,AAGGTCCA,0.0292
22,GTGTTGAA,0.123
23,ATTGAATG,-0.0546
24,GACCGATC,-0.163
25,CGCAGACG,0.0261

# Part of the list above in a different format:
row | Sequence | PBM E-score
2 | ACCTTAGG | -0.159
10 | AGCTTGAC | -0.245
12 | AATCTACA | 0.0424
20 | CCGTATCG | 0.256

# Going on with the list.

row,Sequence,PBM E-score
1,CAAGTACG,0.105
2,ATCCTGCA,0.0251
3,AGTCCTCA,-0.086
4,CATAGGTC,-0.0589
5,GGGCCCCA,-0.295
6,AGAAGCCC,-0.16
7,AAAAGTGG,0.0942
8,ACAATGTC,0.226
9,CCCTGCGG,-0.315
10,AACACTCT,-0.0602
11,ATTACTCA,0.0171
12,ACTATGCC,0.0958
13,AGTACTAT,0.129
14,CCAAATGC,-0.223
15,CGCTATAA,-0.0302
16,TCGGGTCA,-0.0674
17,AGCCAGTG,0.151
18,AAGCGTGT,-0.0259
19,ATCCGCCG,2e-05
20,AGTTGTTA,0.06
21,CGAGACGC,-0.0479
22,AATACATT,0.112
23,AGTTAACC,-0.0201
24,AGGAGCAT,-0.0588
25,CACTTGAA,-0.0514

# Given with tabs: part of the list above.
row	Sequence	PBM E-score
5	GGGCCCCA	-0.295
6	AGAAGCCC	-0.16
7	AAAAGTGG	0.0942
8	ACAATGTC	0.226

# Next part.

row,Sequence,PBM E-score
1,AAACGCTT,-0.0985
2,TCTTAACA,0.129
3,CGCATAGA,0.00565
4,ACAGGCAC,-0.118
5,CAGTCAAA,-0.0295
6,TATGGCGA,-0.0381
7,CCCGATGA,0.0915
8,ATAGAGAA,-0.0045
9,CAATGCAG,-0.0393
10,AGATAAGA,0.194
11,AGCGCAGC,-0.241
12,CTTACAGA,-0.069
13,CTAATCGA,0.0457
14,AATACCGA,-0.0516
15,ACTCTGAA,-0.0391
16,CGTGACTA,0.269
17,AGTCCACA,-0.0724
18,AGCGCCTC,-0.266
19,CACTTCCA,0.00893
20,ACAGTATG,0.0512
21,CATATAAC,0.155
22,ACCCCACT,-0.13
23,CGGGTTCA,-0.0588
24,AAGCACAG,-0.0627
25,AACATTAT,0.066

row,Sequence,PBM E-score
1,CAGATGTA,0.0309
2,AAATGTAT,0.152
3,CAAGCCGA,0.0899
4,GGTCTTCA,-0.0846
5,TCTAGCCA,0.0826
6,CCCTTCGC,-0.16
7,ACTCCGGG,0.0329
8,GGGGATAA,0.0264
9,AAAGCAAC,0.00349
10,AACAGTCG,0.0359
11,CGCTACTA,0.105
12,GCCAAGTA,-0.151
13,GACAATGA,-0.00952
14,ATCATATC,0.276
15,ATAGAGAT,0.0356
16,GAGTGCCA,-0.212
17,GCAGCCGA,-0.112
18,GCGCTGTA,-0.132
19,GCACGAAA,0.336
20,ATTCGTGA,0.15
21,ACATTGCG,0.119
22,AACACCCA,-0.274
23,AAATATAT,0.125
24,AACAACCG,0.0667
25,ATCAACGA,0.224

row,Sequence,PBM E-score
1,CAGGACAC,-0.127
2,TATAATCA,0.281
3,CAAGAATC,0.145
4,CGCAAAAA,-0.0831
5,TGCTGACA,0.0722
6,CGGATGTA,-0.199
7,AGGAGGCA,-0.229
8,GAATCGCC,-0.0976
9,TTGGTAAA,0.0251
10,AGGCTTCC,-0.198
11,CCCGTGAA,0.131
12,TGATCTAA,0.244
13,GTAGAAAA,0.169
14,GGTCTGAA,0.0869
15,AGCCGATA,-0.0881
16,ACTTACGG,0.196
17,ATGAGGCC,-0.104
18,GCTGTGGA,0.0882
19,ACAGACGG,0.0841
20,AAATGGCC,0.0293
21,CTTGACTC,-0.124
22,CCGGGCCC,-0.124
23,AGTACCAA,0.173
24,AGCACGTC,0.106
25,ACGGCGGA,0.0744

row,Sequence,PBM E-score
1,CAAAGGGA,0.0101
2,TGCGTTAA,0.108
3,CAAATTCC,0.0741
4,CCATAGAA,-0.21
5,CACGGTTA,0.199
6,GTATCACA,0.24
7,TTACAGAA,-0.0816
8,AACATCAC,0.283
9,GGAATCGA,-0.197
10,AGTCGTGG,0.0697
11,GAACAAAC,0.0209
12,ATACACAC,0.0494
13,CGATAGTA,-0.0157
14,CGATTGAA,-0.0852
15,AGGCCACG,-0.135
16,TAGCGCGA,0.179
17,CTGTTTGC,0.0145
18,CTACATGA,0.0313
19,ATTGTTCA,0.0589
20,CTAGGCGA,-0.111
21,GACTTTAC,-0.0271
22,AGCGTTAA,-0.0696
23,ACGTGTTA,0.113
24,AGATAGCA,-0.0558
25,AGAAGGAA,-0.278

# In a second layout: results already given.
row	Sequence	PBM E-score
12	ATACACAC	0.0494
13	CGATAGTA	-0.0157
14	CGATTGAA	-0.0852
15	AGGCCACG	-0.135

# Going on with the list.

row,Sequence,PBM E-score
1,ACGGGAAC,-0.0402
2,AGGTTTCA,0.0143
3,ACTGAGTG,0.0323
4,GAAGTGTC,0.00769
5,CCTGCTGC,-0.149
6,ACTAAGCA,0.109
7,ACGCACCA,-0.101
8,CATTCTAA,0.113
9,AATCACTC,0.224
10,ATCAGAGA,0.121
11,CATATACC,-0.0104
12,GTTTCGCA,0.0355
13,GGGGCAGA,-0.105
14,ACCCGCGT,-0.203
15,TACTATCA,0.246
16,GTCAGCAC,0.136
17,CTTGATAA,0.138
18,GCCACGAA,0.0988
19,ATACTTTC,0.126
20,ACTCTGTC,0.0112
21,AAAACAGA,0.126
22,CGCTCGCA,0.128
